Record: PubChem BioAssay AID1259308 (NCATS, 2017)

Aim: 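Genes whose loss raises luciferase production in HEK293 cells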 (primary screen)
Cell system: human HEK293 embryonic kidney cells stably expressing firefly luciferase (HEK-CMV-Luc2-Hygro)
Knock-down reagent: single siRNA against human genes, 0.8 pmol siRNA per well
Time to read-out: 72 h
Read-out: 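Luciferase light (ONE-Glo) measured on one replicate plate set and viability (CellTiter-Glo) on the other, scaled to a negative control siRNA, with robust z-scores and luciferase per cell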
Scale: total luciferase, z-score: higher = more reporter protein produced
Active means: 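Active when the median/MAD z-score for overall luciferase is greater than 3; a gene was taken forward for validation with new siRNAs if at least two of its three siRNAs passed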
Calls: active = raised luciferase; inactive = no rise
Shown is a random part of about 59,000 deposited reagents. Of all reagents, about 1,510 (2.6%) are marked active. 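Calls use total luciferase alone and ignore viability, so some active siRNAs may act by altering cell number.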 Further read-outs or replicates are left out here.

The opening 2 entries, to show the layout:
gene knocked down	PubChem SID	total luciferase, z-score	Call
VWA2	SID160764477	0.47	inactive
VWA2	SID160764479	0.00739	inactive

The listing, from the start:
gene knocked down	PubChem SID	total luciferase, z-score	Call
VWA2	SID160764477	0.47	inactive
VWA2	SID160764479	0.00739	inactive
VWA2	SID160764480	-1.07	inactive
CDKL5	SID160717481	0.042	inactive
CDKL5	SID160717482	0.336	inactive
CDKL5	SID160717483	-0.376	inactive
MAD2L1	SID160776845	-0.974	inactive
MAD2L1	SID160776846	1.97	inactive
MAD2L1	SID160776847	1.79	inactive
DRG2	SID160756386	-0.501	inactive
DRG2	SID160756397	-0.377	inactive
DRG2	SID160756407	0.165	inactive
KDELR2	SID160729742	0.213	inactive
KDELR2	SID160729743	6.53	active
KDELR2	SID160729744	0.612	inactive
ELMOD3	SID160751835	1.94	inactive
ELMOD3	SID160751836	2.64	inactive
ELMOD3	SID160751837	-1.17	inactive
TXLNG	SID160744358	1.03	inactive
TXLNG	SID160744360	-0.192	inactive
TXLNG	SID160744361	0.908	inactive
CASP2	SID160736571	0.182	inactive
CASP2	SID160736582	0.598	inactive
CASP2	SID160736593	-0.978	inactive
